Percent effect of library compounds

Sequences of proteins named here, by UniProt entry; tags and fusion partners are left off.
UniProt I6X8D2, whole entry: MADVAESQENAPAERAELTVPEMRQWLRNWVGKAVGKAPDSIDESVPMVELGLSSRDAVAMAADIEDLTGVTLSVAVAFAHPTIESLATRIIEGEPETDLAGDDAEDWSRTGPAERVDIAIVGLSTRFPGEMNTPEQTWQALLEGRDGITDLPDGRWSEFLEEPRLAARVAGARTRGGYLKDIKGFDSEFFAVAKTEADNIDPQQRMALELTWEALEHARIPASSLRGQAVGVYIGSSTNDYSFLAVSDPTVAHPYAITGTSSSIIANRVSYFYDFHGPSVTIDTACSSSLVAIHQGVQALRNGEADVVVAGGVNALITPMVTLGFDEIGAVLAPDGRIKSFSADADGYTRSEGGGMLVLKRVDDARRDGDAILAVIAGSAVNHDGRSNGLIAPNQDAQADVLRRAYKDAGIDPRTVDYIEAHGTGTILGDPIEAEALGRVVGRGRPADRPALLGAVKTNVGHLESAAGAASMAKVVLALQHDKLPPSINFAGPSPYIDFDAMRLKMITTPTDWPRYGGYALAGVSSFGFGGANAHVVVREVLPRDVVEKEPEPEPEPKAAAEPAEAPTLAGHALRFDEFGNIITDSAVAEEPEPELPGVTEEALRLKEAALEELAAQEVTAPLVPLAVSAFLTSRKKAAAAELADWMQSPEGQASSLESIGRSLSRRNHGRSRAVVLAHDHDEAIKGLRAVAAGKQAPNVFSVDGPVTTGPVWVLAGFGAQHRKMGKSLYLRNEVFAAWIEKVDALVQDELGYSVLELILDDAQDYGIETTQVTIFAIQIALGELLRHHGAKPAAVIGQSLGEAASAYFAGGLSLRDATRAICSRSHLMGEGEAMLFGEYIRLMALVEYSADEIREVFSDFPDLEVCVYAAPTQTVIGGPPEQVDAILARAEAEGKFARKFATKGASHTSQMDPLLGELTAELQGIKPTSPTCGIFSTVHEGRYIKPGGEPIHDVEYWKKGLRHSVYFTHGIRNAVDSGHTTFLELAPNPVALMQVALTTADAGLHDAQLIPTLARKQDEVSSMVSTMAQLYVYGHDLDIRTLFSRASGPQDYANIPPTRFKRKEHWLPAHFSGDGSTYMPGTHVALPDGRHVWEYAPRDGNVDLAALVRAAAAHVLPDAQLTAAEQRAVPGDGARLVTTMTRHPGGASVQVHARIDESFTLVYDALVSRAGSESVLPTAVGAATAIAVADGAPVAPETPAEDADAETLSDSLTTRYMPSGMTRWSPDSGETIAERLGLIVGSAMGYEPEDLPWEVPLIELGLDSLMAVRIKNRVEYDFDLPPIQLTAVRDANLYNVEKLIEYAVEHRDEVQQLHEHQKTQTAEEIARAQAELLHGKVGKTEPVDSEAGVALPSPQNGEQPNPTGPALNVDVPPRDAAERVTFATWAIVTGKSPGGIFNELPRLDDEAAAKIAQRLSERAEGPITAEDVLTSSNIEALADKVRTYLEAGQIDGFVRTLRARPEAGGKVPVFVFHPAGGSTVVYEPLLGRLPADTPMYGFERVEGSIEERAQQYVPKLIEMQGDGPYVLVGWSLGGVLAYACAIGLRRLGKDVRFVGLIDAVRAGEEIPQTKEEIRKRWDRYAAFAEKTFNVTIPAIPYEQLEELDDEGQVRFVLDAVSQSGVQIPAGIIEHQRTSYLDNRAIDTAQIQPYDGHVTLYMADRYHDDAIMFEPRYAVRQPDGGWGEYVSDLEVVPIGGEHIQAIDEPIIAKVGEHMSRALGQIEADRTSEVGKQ
UniProt P9WNZ1, whole entry: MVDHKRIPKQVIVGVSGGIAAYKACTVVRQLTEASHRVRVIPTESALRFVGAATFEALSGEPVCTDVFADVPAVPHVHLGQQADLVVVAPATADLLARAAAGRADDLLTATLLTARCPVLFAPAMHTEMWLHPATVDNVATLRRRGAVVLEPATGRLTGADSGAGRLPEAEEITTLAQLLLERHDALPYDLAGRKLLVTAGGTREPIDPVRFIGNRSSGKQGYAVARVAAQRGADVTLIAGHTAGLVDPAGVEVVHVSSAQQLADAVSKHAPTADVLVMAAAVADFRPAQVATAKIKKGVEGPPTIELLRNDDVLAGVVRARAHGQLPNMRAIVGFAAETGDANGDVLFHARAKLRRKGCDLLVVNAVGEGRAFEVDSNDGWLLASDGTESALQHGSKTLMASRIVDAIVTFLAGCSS
UniProt P9WPC5, whole entry: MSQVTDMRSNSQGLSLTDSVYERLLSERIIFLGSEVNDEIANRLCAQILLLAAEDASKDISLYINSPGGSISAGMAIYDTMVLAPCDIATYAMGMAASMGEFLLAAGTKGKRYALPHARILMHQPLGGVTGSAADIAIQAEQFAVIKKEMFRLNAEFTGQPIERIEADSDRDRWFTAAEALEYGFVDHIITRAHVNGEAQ
UniProt P9WPC3, whole entry partner: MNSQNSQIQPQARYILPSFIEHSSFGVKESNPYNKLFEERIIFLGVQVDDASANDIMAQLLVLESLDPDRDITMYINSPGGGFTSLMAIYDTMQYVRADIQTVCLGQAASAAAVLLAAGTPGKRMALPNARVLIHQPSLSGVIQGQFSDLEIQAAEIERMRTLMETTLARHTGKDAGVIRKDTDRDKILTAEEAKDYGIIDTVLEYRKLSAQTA
UniProt P9WFT3, whole entry: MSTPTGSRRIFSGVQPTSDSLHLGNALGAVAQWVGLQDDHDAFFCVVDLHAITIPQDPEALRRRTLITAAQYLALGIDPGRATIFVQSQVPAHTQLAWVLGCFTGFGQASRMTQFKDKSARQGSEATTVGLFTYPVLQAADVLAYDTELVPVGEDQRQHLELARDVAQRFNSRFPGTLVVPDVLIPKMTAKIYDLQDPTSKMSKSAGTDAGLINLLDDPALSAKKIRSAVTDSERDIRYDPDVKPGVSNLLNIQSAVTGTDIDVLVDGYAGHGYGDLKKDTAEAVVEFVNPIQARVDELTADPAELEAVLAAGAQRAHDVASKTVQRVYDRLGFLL

A: 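Enzyme assay of the thioesterase domain of polyketide synthase 13; the read-out is not stated. Target: Polyketide synthase Pks13, Mycobacterium tuberculosis (UniProt I6X8D2). Concentration: 30 µM. Higher reads as stronger inhibition (inferred from which compounds were picked for retests). Of about 67,000 compounds tested this way, about 300 (0.46%) reached 50% or more in at least one test.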
B: 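Assay of Toxoplasma gondii numbers, read through their beta-galactosidase reporter with a colour substrate. Compounds at 10 µM. Higher reads as fewer parasites (inferred from which compounds were picked for retests). Of about 67,000 compounds tested this way, about 260 (0.38%) reached 50% or more in at least one test.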
C: 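Coenzyme A biosynthesis protein CoaBC, Mycobacterium tuberculosis (UniProt P9WNZ1). Enzyme assay of CoaBC with a phosphate dye (Biomol Green) read at 650 nm. Tested at 30 µM. Higher reads as stronger inhibition, judged from the few compounds that gave an IC50. Most strong results did not repeat in a second test. Size under these conditions: about 67,000 compounds, about 40 of them at 50% or above in at least one test.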
D: 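ClpP1P2, Mycobacterium tuberculosis (UniProt P9WPC5 and UniProt P9WPC3). Protease assay of ClpP1P2, read by the AMC dye that it sets free. Compounds at 50 µM. Higher reads as stronger inhibition, judged from the few compounds that gave an IC50. Most other retested compounds had strongly negative values. Of about 69,000 compounds tested this way, about 10 (0.015%) reached 50% or more in at least one test.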
E: 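Cell assay of Leishmania donovani living inside macrophages; the read-out is not stated. Tested at 30 µM. Higher reads as stronger inhibition (inferred: compounds with an IC50 in retests scored well above the rest). About 69,000 compounds were tested under these conditions; 1.5% (about 1,000) showed 50% or more at least once.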
F: 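Enzyme assay of tryptophanyl-tRNA synthetase; the read-out is not stated. Target: Tryptophan-tRNA ligase, Mycobacterium tuberculosis (UniProt P9WFT3). Tested at 10 µM. Direction is not recorded; retested compounds ran higher, which suggests that high means inhibition. About 65,000 compounds were tested under these conditions; 0.098% (about 64) showed 50% or more at least once.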

Results are given as percent effect.
The record does not define 0% and 100%; most values in the screen are far below 50% and negative numbers occur (in some assays of this library far below -100).
The compounds are a random part of those screened.

{"structure": "CCCN(CCC)S(=O)(=O)NCCc1cc(C)ccc1OC", "A": -50.83, "B": 2.879, "D": -1.521, "E": 9.023, "F": 0.1032}
{"structure": "CSc1ccsc1C(=O)NS(=O)(=O)c1cnn(C)c1", "A": 2.967, "B": 13.79, "C": 7.073, "D": -21.33, "E": 6.895, "F": -1.354}
{"structure": "Cc1occc1C(=O)N1CCn2c(Cn3cncn3)cnc2C1C", "stereo": "centres undefined", "A": -44.98, "B": 1.3, "C": 3.083, "D": 2.028, "E": 2.556, "F": 26.51}
{"structure": "Cc1nccc(-c2cccc(NCC(=O)NCC(=O)N3CCCC3)c2)n1", "A": 9.865, "B": -8.707, "C": 0.3911, "D": -4.79, "E": 0.2236, "F": -3.595}
{"structure": "COCCN1C[C@@H]2CN(Cc3cccc(F)c3)CCC[C@]2(C(=O)O)C1", "A": -4.774, "C": -1.141, "D": -13.26, "F": 6.284}
{"structure": "Cc1csc(CN2CCC[C@]3(C[C@@H](Oc4ccccn4)CO3)C2)n1.O=C(O)C(F)(F)F.O=C(O)C(F)(F)F", "B": 12.64, "E": 5.904}
{"structure": "O=C(O)C(F)(F)F.O=C(O)C(F)(F)F.O=C(O)C(F)(F)F.[H][C@@]12CN(Cc3ccco3)CCC[C@]1(C(=O)OCC)CN(CCN(C)C)C2", "B": 2.882, "E": 36.36}
{"structure": "O=C(NC[C@H]1OC[C@@H](NC2COC2)[C@@H]1O)Nc1ccccc1", "A": -22.69, "B": -2.811, "C": 1.545, "D": -2.492, "E": 20.32, "F": 3.111}
{"structure": "Cc1nc(O)cc(CCNC(=O)CN2CCCCCC2)n1", "A": -5.343, "B": 4.994, "C": -2.581, "D": -14.75, "E": 7.258, "F": -5.21}
{"structure": "CCn1ncc2c1CN(C(=O)c1cscn1)CC2COC.O=C(O)C(F)(F)F", "stereo": "centres undefined", "B": -8.412, "E": 18.94}
{"structure": "Cl.c1cnc2c(c1)cc([C@H]1CCCO1)n2CCN1CCCCC1", "B": 9.033, "E": 18.52}
{"structure": "COC(=O)C(NC(=O)c1ccc(C)cc1C)c1cccnc1", "stereo": "centres undefined", "A": -12.46, "B": -8.364, "C": 2.19, "D": -11.39, "E": 32.4, "F": 4.43}
{"structure": "O=C(NCCn1ccnc1)N1CCCC1c1ccsc1", "stereo": "centres undefined", "A": -39.71, "B": -15.41, "C": 0.5181, "D": 15.83, "E": 28.96, "F": -0.3712}
{"structure": "Cn1cc(Cl)c(C(=O)N2CCc3nc4sccc4c(=O)n3CC2)n1", "A": -7.139, "B": -2.118, "C": 0.8653, "D": -16.47, "E": 14.46, "F": -9.255}
{"structure": "CN(Cc1cccnc1)CC1CN(C(N)=O)Cc2nccn2C1", "stereo": "centres undefined", "A": -15.54, "B": 11.71, "C": 4.569, "D": -11.06, "E": 59.79, "F": -7.49}
{"structure": "Cc1cnc(NCCCN2CCc3ccccc32)nc1", "A": -7.21, "B": 19, "C": 9.172, "D": 18.26, "E": 21.16, "F": -1.223}
{"structure": "O=C([C@@H]1C[C@@H]2CCN(Cc3ccccn3)C[C@H]2O1)N1CCCO1", "A": -7.035, "C": -29.68, "D": -10.84, "F": 6.295}
{"structure": "O=C(Nc1cccc(N2CCN(CC3CC3)CC2)c1)N1CCCC1", "A": -30.12, "B": -9.173, "C": -7.298, "D": 0.5563, "E": 55.96, "F": 4.524}
{"structure": "CCCN1CCC(CC(=O)N(C)CC(=O)c2ccc(O)cc2)CC1", "A": 6.903, "B": 11.25, "C": 1.229, "D": -3.461, "E": 22.7, "F": -0.07468}
{"structure": "COCCN1CCC2(CC1)CC(NC(=O)C1CC1)c1ccccc1O2.O=C(O)C(F)(F)F", "stereo": "centres undefined", "B": -19.34, "E": 34.78}
{"structure": "Cc1ccc2c(n1)N(Cc1cccnc1)CCN(C(=O)C1CC1)C2", "A": -9.755, "C": 4.26, "D": 8.605, "F": 0.5348}
{"structure": "CN(C)C(C(=O)N1CCC(C#N)CC1)c1ccccc1F", "stereo": "centres undefined", "A": -19.38, "B": 2.227, "C": -0.9862, "D": -7.76, "E": 5.12, "F": -0.6463}
{"structure": "COCCC1(CO)CCCN(C(=O)c2ccc(C(C)C)[nH]c2=O)C1", "stereo": "centres undefined", "A": 4.84, "B": -7.825, "C": 3.6, "D": -9.725, "E": -12.61, "F": 14.94}

For reference, 2 entries once more:

- CCn1ncc2c1CN(C(=O)c1cscn1)CC2COC.O=C(O)C(F)(F)F (centres undefined) | B: -8.412%; E: 18.94%
- CCCN(CCC)S(=O)(=O)NCCc1cc(C)ccc1OC | A: -50.83%; B: 2.879%; D: -1.521%; E: 9.023%; F: 0.1032%

Measurements from “University of Dundee, Small-Polar-MMV Screening Library” (2021), ChEMBL document CHEMBL3988442.